Laboratory results from article PMC11790905.
These are yes or no findings as the source states them, for the method shown. In cells and extracts the contact can be indirect. Some binding calls cover weakened binding; strength is not graded here.

Protein sequences, listed by entry. Tags and fused reporters are not part of them. Lines headed by an entry give the natural chain unless they say otherwise; changes in a name come on top.
UniProt P05556: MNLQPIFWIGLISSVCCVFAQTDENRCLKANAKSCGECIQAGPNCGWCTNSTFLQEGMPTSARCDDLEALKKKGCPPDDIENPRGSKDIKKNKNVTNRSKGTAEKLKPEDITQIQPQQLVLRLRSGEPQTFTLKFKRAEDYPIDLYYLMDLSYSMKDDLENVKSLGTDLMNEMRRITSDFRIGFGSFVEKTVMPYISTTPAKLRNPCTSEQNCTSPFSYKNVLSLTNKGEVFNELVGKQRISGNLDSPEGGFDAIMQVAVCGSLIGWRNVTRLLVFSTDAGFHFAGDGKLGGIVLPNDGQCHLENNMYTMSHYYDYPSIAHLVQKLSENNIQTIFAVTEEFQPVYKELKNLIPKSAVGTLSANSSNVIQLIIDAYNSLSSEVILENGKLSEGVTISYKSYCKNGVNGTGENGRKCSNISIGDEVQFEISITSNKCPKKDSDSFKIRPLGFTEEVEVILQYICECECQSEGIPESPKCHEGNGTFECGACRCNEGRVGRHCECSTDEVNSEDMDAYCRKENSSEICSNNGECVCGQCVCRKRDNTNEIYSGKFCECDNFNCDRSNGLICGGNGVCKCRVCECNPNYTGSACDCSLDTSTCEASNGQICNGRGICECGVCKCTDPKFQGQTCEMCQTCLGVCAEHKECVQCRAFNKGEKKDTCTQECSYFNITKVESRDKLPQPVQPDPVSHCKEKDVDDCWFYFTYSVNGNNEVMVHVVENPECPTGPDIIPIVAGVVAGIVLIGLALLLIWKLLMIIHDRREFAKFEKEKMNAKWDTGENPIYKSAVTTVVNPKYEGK
UniProt Q12809: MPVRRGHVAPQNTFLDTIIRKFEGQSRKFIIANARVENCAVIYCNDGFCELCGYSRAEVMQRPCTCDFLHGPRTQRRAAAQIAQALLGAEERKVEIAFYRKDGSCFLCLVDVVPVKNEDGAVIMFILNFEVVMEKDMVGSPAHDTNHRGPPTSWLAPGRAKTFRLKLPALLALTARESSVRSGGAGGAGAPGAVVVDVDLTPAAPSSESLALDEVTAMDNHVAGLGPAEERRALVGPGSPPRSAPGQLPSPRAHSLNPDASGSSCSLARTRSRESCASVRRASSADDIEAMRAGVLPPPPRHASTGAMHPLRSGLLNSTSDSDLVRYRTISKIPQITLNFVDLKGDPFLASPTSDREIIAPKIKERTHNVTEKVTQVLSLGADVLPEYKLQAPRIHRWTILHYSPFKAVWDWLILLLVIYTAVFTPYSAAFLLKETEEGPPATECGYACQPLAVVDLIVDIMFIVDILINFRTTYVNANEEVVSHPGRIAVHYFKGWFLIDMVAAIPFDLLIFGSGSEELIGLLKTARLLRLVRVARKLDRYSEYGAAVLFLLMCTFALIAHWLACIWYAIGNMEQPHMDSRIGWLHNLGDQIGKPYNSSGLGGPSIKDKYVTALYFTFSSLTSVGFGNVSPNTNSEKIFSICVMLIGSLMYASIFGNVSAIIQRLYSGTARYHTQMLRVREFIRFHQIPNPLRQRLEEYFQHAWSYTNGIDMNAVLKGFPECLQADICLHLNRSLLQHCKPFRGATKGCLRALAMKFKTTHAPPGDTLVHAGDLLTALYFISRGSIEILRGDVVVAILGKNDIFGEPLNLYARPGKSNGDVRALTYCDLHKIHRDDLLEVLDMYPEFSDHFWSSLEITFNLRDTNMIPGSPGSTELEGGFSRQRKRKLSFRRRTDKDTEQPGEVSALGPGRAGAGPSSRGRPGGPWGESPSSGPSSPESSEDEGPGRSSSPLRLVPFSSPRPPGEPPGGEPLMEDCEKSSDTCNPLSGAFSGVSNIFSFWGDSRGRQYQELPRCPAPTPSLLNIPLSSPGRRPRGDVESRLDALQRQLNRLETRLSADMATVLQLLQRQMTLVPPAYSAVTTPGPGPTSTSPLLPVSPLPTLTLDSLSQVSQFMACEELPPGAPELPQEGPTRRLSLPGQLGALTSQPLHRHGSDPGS
UniProt Q03135: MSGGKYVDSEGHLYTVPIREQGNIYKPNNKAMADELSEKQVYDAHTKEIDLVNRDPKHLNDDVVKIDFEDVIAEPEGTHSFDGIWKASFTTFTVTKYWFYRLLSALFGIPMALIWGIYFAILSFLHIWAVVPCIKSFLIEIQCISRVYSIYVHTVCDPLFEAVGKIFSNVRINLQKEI

B1: flotillin-1 (protein, UniProt O75955 1-427)
chain: MFFTCGPNEAMVVSGFCRSPPVMVAGGRVFVLPCIQQIQRISLNTLTLNVKSEKVYTRHGVPISVTGIAQVKIQGQNKEMLAAACQMFLGKTEAEIAHIALETLEGHQRAIMAHMTVEEIYKDRQKFSEQVFKVASSDLVNMGISVVSYTLKDIHDDQDYLHSLGKARTAQVQKDARIGEAEAKRDAGIREAKAKQEKVSAQYLSEIEMAKAQRDYELKKAAYDIEVNTRRAQADLAYQLQVAKTKQQIEEQRVQVQVVERAQQVAVQEQEIARREKELEARVRKPAEAERYKLERLAEAEKSQLIMQAEAEAASVRMRGEAEAFAIGARARAEAEQMAKKAEAFQLYQEAAQLDMLLEKLPQVAEEISGPLTSANKITLVSSGSGTMGAAKVTGEVLDILTRLPESVERLTGVSISQVNHKPLRTA

How the values were obtained:
[1] = target: β1 subunit of integrin receptors (human (endogenous in PANC-1, MiaPaCa2, BxPC3, HPDE, RLT-PSC, HEK293)) (UniProt P05556); assay: condition: only cells seeded on BSA (where integrins are not activated); co-IP; IP with anti-β1 integrin mAb TS2/16 from total lysate of HEK-hERG1 cells seeded on BSA (integrins not activated) for 90 min
[2] = target: β1 subunit of integrin receptors (human (endogenous in PANC-1, MiaPaCa2, BxPC3, HPDE, RLT-PSC, HEK293)) (UniProt P05556); assay: co-IP; IP with anti-β1 integrin mAb TS2/16 from total lysates of PANC-1, MiaPaCa2 and BxPC3 cells (caveolin-1 and flotillin-1 also in HPDE and RLT-PSC) seeded on Fibronectin for 90 min; PANC-1 also with 5 mM MβCD for 20 min (less complex)
[3] = target: β1 subunit of integrin receptors (human (endogenous in PANC-1, MiaPaCa2, BxPC3, HPDE, RLT-PSC, HEK293)) (UniProt P05556); assay: co-IP; IP with anti-β1 integrin mAb TS2/16 from total lysate (1% NP-40) of HEK-hERG1 cells seeded on Fibronectin for 90 min; blots for hERG1, caveolin-1, flotillin-1; also with 5 mM MβCD for 20 min (less complex)
[4] = target: β1 subunit of integrin receptors (human (endogenous in PANC-1, MiaPaCa2, BxPC3, HPDE, RLT-PSC, HEK293)) (UniProt P05556); assay: condition: only WT HEK 293 cells, which do not express hERG1; co-IP; IP with anti-β1 integrin mAb TS2/16 from total lysate of WT HEK 293 cells, which do not express hERG1 (control)
[5] = target: β1 subunit of integrin receptors (human (endogenous in PANC-1, MiaPaCa2, BxPC3, HPDE, RLT-PSC, HEK293)) (UniProt P05556); assay: condition: only lysates of normal HPDE cells and RLT-PSC stellate cells; co-IP; IP with anti-β1 integrin mAb TS2/16 from total lysates of normal HPDE cells and RLT-PSC pancreatic stellate cells after 90 min adhesion; blot for hERG1
[6] = target: hERG1 potassium channel stably expressed in HEK293 cells (HEK-hERG1) (human) (UniProt Q12809); assay: co-IP; IP with anti-hERG1 mAb from total lysate of HEK-hERG1 cells seeded on Fibronectin for 90 min, untreated or treated with MβCD, scDb-hERG1-β1 or both; told only by 'All these effects were evident ... in HEK-hERG1 cells'
[7] = target: hERG1 potassium channel stably expressed in HEK293 cells (HEK-hERG1) (human) (UniProt Q12809); assay: co-IP; IP with anti-hERG1 mAb from pooled Triton X-100-insoluble (4-6) and -soluble (9-11) sucrose-gradient fractions of HEK-hERG1 cells seeded on Fibronectin for 90 min; blot with anti-β1 integrin pAb RM12
[8] = target: hERG1 potassium channel (human ether-à-go-go-related gene 1), endogenous in PDAC cells (human (endogenous in PANC-1, MiaPaCa2, BxPC3)) (UniProt Q12809); assay: co-IP; IP with anti-hERG1 mAb from pooled Triton X-100-insoluble (4-6) and -soluble (9-11) sucrose-gradient fractions of PANC-1 cells in standard culture; blot with anti-β1 integrin pAb RM12
[9] = target: hERG1 potassium channel (human ether-à-go-go-related gene 1), endogenous in PDAC cells (human (endogenous in PANC-1, MiaPaCa2, BxPC3)) (UniProt Q12809); assay: co-IP; IP with anti-hERG1 mAb from total lysate of PANC-1 cells (MiaPaCa2 too by the text) seeded on Fibronectin for 90 min, untreated or treated with MβCD (5 mM), scDb-hERG1-β1 (20 µg/ml) or both (less co-precipitate); blots for PI3K p85 and β1 integrin

Molecule	binding [1]	binding [2]	binding [3]	binding [4]	binding [5]	binding [6]	binding [7]	binding [8]	binding [9]
caveolin-1 (from UniProt Q03135 1-178)	no binding	binds	binds	no binding					
hERG1 potassium channel stably expressed in HEK293 cells (HEK-hERG1) (from UniProt Q12809 1-1159)	no binding		binds						
hERG1 potassium channel (human ether-à-go-go-related gene 1), endogenous in PDAC cells (from UniProt Q12809 1-1159)		binds			no binding				
β1 subunit of integrin receptors (from UniProt P05556 21-798)						binds	binds	binds	binds
B1	no binding	binds	binds	no binding					
